PubChem BioAssay AID1508588 – Peter MacCallum Cancer Centre | 2020
Purpose: 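Which gene losses make BRAF-mutant melanoma cells more responsive to vemurafenib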 (primary screen). Cells: human WM266.4 melanoma cells (BRAF V600 mutant). Reagent: siRNA pool against human genes, 40 nM. Time to read-out: 96 h from transfection to read-out. Conditions: vemurafenib 300 nM (about IC25), added 48 h after transfection, for 48 h; comparison arm got DMSO vehicle only. Detection: 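Ratios to non-targeting siRNA for cell gain, counted as DAPI nuclei after minus before drug and averaged over two replicates, and for absorbance-read medium lactate per cell; both binned into fold-change classes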. Scale: cell gain with vemurafenib: higher = more cell gain than with non-targeting siRNA; lactate per cell with vemurafenib: higher = more lactate made per cell. Call rule: 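Enhancement is called by pairing each knock-down's vehicle-arm and drug-arm fold-change classes for viability or glycolysis; which class combinations qualify is not given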. Meaning of the calls: active = enhances vemurafenib effect; inactive = no enhancement seen.
The whole screen tested about 18,000 reagents; shown is a random part of them. 790 of them (4.4%) count as active. 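Calls rest on a combination of fold-change classes in drug and vehicle arms, not all shown here.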 Reagents against one gene are numbered here. Some reagents were tested in more than one well and are listed for each.

Target gene	reagent	cell gain with vemurafenib	lactate per cell with vemurafenib	activity call
CTH (GeneID 1491)	1	0.8	0.5	inactive
RNASE9 (GeneID 390443)	1	0.37	0.97	inactive
ZBTB3 (GeneID 79842)	1	0.54	0.62	inactive
SRF (GeneID 6722)	1	0.56	0.49	inactive
GFER (GeneID 2671)	1	0.11	2.75	inactive
SMIM3 (GeneID 85027)	1	0.71	1.04	inactive
SMIM3 (GeneID 85027)	1	0.73	1.25	inactive
CAPN13 (GeneID 92291)	1	0.77	1.12	inactive
WDR88 (GeneID 126248)	1	0.49	0.48	active
SLC43A2 (GeneID 124935)	1	0.58	0.51	inactive
LRRC61 (GeneID 65999)	1	-0.17	3.33	inactive
CRMA (GeneID 253868)	1	0.33	0.73	inactive
CACNG2 (GeneID 10369)	1	0.66	0.95	inactive
CTCF (GeneID 10664)	1	0.02	1.72	inactive
DPPA4 (GeneID 55211)	1	0.89	0.41	inactive
KRT1 (GeneID 3848)	1	0.49	0.98	inactive
CAPS2 (GeneID 84698)	1	0.97	0.88	inactive
KIRREL2 (GeneID 84063)	1	0.54	0.45	inactive
NEU4 (GeneID 129807)	1	0.66	0.53	inactive
SYNGR2 (GeneID 9144)	1	0.44	0.8	inactive
SEMA3A (GeneID 10371)	1	0.47	0.52	inactive
RNF4 (GeneID 6047)	1	1.02	0.86	inactive
DMRT2 (GeneID 10655)	1	0.29	1.42	inactive
CCL22 (GeneID 6367)	1	0.43	0.75	inactive
MYO7A (GeneID 4647)	1	0.73	1.15	inactive
NRG2 (GeneID 9542)	1	0.37	1.52	inactive
ANKRD28 (GeneID 23243)	1	0.79	0.83	inactive
PLXDC2 (GeneID 84898)	1	0.53	0.45	inactive
SHD (GeneID 56961)	1	0.02	1.82	inactive
GPR12 (GeneID 2835)	1	0.52	1.17	inactive
MGST2 (GeneID 4258)	1	0.42	0.72	inactive
WAPL (GeneID 23063)	1	0.22	0.82	inactive
FBXO38 (GeneID 81545)	1	0.61	1.31	inactive
FAM13C (GeneID 220965)	1	0.63	2.44	inactive
GBP6 (GeneID 163351)	1	0.66	0.96	inactive
SPINK5 (GeneID 11005)	1	0.28	1.95	inactive
DGAT1 (GeneID 8694)	1	0.93	0.62	inactive
KIAA1143 (GeneID 57456)	1	0.74	1.37	inactive
AP1S2 (GeneID 8905)	1	0.61	0.76	inactive
ALDH7A1 (GeneID 501)	1	0.42	1.25	inactive
MOSPD1 (GeneID 56180)	1	0.65	0.42	inactive
ZNF431 (GeneID 170959)	1	0.45	1.06	inactive
PPWD1 (GeneID 23398)	1	0.77	0.87	inactive
TMEM82 (GeneID 388595)	1	0.78	0.65	inactive
UNC45A (GeneID 55898)	1	0.26	1.22	inactive
NECTIN4 (GeneID 81607)	1	0.84	0.62	inactive
HDC (GeneID 3067)	1	0.45	0.92	inactive
PTH (GeneID 5741)	1	0.77	0.44	active
CEP126 (GeneID 57562)	1	0.86	0.84	inactive
PITX1 (GeneID 5307)	1	0.25	0.67	active
PDGFRA (GeneID 5156)	1	0.43	0.76	inactive
DRG2 (GeneID 1819)	1	0.7	0.55	inactive
CCNE1 (GeneID 898)	1	0.37	1.06	inactive
ERCC3 (GeneID 2071)	1	0.82	0.63	inactive
TMEM44 (GeneID 93109)	1	0.67	0.51	inactive
FGD6 (GeneID 55785)	1	0.62	1.04	inactive
SLC17A4 (GeneID 10050)	1	0.52	1.02	inactive
HYKK (GeneID 123688)	1	0.27	1.36	inactive
EPYC (GeneID 1833)	1	0.7	0.45	inactive
GOLGB1 (GeneID 2804)	1	0.61	0.5	inactive
STK3 (GeneID 6788)	1	0.76	0.78	inactive
PSMD1 (GeneID 5707)	1	-0.03	1.83	inactive
EIPR1 (GeneID 7260)	1	0.85	0.54	inactive
PPARD (GeneID 5467)	1	0.59	0.99	inactive
LRRC2 (GeneID 79442)	1	0.51	0.37	active
STRADB (GeneID 55437)	1	0.85	0.44	inactive
TFF3 (GeneID 7033)	1	0.93	0.8	inactive
DMTN (GeneID 2039)	1	0.59	0.53	inactive
CPAP (GeneID 55835)	1	0.22	1.31	inactive
MYL4 (GeneID 4635)	1	0.84	0.31	inactive
TBL2 (GeneID 26608)	1	0.5	0.63	inactive
CLTA (GeneID 1211)	1	0.13	1.21	inactive
ZMAT4 (GeneID 79698)	1	1.07	0.82	inactive
TXLNGY (GeneID 246126)	1	1.19	0.6	inactive
TXLNGY (GeneID 246126)	2	0.32	1.17	inactive
ARL4A (GeneID 10124)	1	0.47	0.97	inactive
GP1BA (GeneID 2811)	1	-0.01	4.3	inactive
GCSAM (GeneID 257144)	1	1.07	1.07	inactive
CHLSN (GeneID 84310)	1	0.58	1.68	inactive
DROSHA (GeneID 29102)	1	0.54	0.92	inactive
CLIP2 (GeneID 7461)	1	0.49	0.67	inactive
TMEM86B (GeneID 255043)	1	0.56	1.54	inactive
SBF1 (GeneID 6305)	1	1.18	0.72	inactive
AMD1 (GeneID 262)	1	0.22	1.39	inactive

Entries listed so far whose target name starts with D or d:
Target gene	reagent	cell gain with vemurafenib	lactate per cell with vemurafenib	activity call
DPPA4 (GeneID 55211)	1	0.89	0.41	inactive
DMRT2 (GeneID 10655)	1	0.29	1.42	inactive
DGAT1 (GeneID 8694)	1	0.93	0.62	inactive
DRG2 (GeneID 1819)	1	0.7	0.55	inactive
DMTN (GeneID 2039)	1	0.59	0.53	inactive
DROSHA (GeneID 29102)	1	0.54	0.92	inactive
